Experiment [1] addresses T1, L-type (Cav 1.3) channels (Rattus norvegicus, UniProt P27732).
T1 construct: host or cells: tsA-201
Description: L-type Ca2+ channel agonist activity, whole-cell perforated patch clamp in tsA-201 cells. The class given is cell-based. A general note: Patch clamp records ionic current or voltage across a cell membrane.

Amino acid sequences for entries named in this document (tags omitted).
UniProt P27732, whole entry: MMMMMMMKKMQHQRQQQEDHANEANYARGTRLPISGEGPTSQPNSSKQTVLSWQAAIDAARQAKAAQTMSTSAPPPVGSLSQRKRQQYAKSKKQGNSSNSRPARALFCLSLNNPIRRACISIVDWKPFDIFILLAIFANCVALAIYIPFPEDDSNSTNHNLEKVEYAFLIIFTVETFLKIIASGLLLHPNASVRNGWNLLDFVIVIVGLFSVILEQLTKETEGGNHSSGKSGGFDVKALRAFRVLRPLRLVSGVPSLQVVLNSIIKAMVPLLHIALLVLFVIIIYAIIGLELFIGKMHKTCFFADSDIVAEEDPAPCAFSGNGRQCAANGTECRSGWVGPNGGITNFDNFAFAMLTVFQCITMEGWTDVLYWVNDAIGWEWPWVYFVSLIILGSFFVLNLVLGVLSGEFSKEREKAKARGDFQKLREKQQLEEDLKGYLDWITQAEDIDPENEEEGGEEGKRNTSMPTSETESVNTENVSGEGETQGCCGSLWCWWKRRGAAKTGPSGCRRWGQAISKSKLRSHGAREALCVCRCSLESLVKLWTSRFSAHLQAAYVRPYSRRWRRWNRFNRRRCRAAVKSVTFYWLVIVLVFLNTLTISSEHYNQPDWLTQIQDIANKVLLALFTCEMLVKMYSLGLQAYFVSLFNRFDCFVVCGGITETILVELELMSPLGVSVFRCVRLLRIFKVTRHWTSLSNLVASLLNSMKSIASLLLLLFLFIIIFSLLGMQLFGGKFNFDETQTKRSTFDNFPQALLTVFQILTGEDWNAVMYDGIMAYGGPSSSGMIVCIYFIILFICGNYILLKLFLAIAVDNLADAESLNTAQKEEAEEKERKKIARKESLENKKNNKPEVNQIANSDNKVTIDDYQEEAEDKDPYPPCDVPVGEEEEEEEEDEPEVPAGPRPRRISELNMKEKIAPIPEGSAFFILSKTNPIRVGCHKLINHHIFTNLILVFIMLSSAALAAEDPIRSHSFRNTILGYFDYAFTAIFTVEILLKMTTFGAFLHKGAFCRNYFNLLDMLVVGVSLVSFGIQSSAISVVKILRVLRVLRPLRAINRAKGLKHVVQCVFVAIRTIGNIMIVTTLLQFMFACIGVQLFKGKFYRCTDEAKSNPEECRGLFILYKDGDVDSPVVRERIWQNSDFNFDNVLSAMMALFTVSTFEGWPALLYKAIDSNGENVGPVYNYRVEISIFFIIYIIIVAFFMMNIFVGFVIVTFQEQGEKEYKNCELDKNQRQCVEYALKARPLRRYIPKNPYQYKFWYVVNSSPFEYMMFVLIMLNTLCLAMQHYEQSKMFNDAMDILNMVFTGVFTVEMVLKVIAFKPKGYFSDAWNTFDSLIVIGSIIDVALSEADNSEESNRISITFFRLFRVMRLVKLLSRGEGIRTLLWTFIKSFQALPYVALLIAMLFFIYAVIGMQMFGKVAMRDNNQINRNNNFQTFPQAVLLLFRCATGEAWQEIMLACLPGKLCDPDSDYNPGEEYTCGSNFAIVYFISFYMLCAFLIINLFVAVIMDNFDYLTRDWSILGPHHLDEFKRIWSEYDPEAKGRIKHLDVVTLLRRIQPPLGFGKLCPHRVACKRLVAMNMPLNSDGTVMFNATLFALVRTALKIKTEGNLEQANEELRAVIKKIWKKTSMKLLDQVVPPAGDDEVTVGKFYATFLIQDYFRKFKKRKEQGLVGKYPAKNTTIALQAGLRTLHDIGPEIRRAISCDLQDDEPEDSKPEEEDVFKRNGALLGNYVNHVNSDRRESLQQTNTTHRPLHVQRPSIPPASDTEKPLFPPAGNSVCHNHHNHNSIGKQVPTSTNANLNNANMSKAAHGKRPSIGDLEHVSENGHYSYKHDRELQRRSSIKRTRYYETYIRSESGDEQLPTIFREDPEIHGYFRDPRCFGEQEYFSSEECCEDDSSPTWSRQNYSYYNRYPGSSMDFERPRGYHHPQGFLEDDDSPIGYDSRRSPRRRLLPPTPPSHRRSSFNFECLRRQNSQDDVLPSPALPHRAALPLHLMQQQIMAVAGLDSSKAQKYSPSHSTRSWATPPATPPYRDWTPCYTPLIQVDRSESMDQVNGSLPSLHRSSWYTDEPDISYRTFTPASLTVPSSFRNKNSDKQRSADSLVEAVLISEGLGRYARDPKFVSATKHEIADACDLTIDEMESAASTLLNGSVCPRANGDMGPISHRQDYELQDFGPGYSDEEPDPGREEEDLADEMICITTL
UniProt Q02294, whole entry: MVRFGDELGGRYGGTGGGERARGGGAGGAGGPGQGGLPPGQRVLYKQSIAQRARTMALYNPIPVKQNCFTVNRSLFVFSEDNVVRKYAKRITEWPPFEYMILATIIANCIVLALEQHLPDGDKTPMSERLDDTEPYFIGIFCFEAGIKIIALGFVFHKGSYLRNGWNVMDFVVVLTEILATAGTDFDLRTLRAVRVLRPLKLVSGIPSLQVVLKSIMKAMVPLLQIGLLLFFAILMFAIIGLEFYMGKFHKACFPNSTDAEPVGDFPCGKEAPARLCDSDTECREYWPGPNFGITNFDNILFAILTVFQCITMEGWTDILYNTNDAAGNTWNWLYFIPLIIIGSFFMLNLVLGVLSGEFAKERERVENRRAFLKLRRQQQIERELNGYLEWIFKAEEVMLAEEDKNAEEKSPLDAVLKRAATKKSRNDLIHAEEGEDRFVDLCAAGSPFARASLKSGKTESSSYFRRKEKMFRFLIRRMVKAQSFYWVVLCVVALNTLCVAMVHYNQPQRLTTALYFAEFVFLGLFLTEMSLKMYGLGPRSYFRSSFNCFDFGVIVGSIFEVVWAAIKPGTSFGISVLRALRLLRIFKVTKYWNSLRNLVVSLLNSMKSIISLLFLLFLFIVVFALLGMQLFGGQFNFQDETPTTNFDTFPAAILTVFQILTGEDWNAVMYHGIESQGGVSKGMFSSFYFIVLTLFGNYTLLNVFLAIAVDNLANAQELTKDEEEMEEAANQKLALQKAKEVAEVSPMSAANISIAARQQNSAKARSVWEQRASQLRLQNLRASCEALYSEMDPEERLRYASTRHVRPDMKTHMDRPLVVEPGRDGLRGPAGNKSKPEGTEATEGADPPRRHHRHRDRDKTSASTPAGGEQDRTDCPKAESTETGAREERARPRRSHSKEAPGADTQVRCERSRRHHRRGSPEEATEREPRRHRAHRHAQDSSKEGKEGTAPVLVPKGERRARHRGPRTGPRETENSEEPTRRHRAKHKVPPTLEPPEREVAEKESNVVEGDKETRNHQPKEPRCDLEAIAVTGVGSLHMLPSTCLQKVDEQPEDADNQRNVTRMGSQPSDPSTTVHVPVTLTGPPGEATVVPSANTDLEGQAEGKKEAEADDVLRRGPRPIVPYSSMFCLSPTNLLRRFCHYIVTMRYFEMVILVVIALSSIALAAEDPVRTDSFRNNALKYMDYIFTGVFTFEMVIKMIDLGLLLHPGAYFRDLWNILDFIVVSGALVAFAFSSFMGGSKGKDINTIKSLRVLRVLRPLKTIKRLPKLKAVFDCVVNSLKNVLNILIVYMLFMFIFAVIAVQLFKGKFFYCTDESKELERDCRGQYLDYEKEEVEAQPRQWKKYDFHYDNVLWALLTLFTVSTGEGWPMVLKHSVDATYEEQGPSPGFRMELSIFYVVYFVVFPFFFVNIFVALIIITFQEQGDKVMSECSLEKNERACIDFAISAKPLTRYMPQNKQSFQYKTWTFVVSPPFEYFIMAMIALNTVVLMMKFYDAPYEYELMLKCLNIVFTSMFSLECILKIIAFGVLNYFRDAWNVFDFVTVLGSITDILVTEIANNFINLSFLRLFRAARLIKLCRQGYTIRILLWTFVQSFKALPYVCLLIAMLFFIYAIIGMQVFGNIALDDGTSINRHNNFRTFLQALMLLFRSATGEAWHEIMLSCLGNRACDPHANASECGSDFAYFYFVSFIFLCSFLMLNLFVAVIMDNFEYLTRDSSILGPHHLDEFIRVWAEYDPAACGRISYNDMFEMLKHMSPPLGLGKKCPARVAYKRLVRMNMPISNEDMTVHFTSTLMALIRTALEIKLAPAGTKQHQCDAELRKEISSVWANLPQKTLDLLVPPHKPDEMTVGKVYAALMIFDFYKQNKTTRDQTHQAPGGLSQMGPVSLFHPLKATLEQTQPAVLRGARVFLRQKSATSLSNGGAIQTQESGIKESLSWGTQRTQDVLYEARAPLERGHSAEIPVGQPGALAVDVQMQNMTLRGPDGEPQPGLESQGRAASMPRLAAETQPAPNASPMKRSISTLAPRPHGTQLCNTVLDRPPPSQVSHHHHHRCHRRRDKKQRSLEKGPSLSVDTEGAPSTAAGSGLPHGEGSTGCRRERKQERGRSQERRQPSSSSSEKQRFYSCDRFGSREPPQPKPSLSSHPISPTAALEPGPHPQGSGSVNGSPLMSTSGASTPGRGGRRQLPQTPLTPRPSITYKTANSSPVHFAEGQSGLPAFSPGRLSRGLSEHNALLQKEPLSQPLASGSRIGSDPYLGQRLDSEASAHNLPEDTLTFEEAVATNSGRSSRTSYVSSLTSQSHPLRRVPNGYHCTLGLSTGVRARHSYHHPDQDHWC

Experiment [2] has as its target T2, N-type Ca^2+ channel (Cav2.2) (Rattus norvegicus, UniProt Q02294).
T2 construct: expressed in transfected cells; later also transient transfection
Description: N-type Ca2+ channel agonist activity, whole-cell perforated patch clamp of tail currents in tsA201 cells. The class given is cell-based. How it is done:
tsA201 cells expressing calcium channels. […] For subsequent evaluation of effects on N-, P/Q-, or L-type channels, tsA-201 cells were transiently transfected with Cav2.2, Cav2.1, or Cav1.3, in combination with Cavβ3 and […] (Addgene, Cambridge Mass.) using FuGENE 6 (Life Technologies, Grand Island, N.Y.). All cells were maintained in DMEM supplemented with 10% fetal bovine serum. For the stable cell line expressing N-type channels, 25 μg/mL zeocin, 5 μg/mL blasticidin, and 25 μg/mL hygromycin were added as selection agents.
Whole-cell patch clamp recordings of calcium current. […] Briefly, the pipette solution consisted of […] Cs2SO4, 60 mM CsCl, 1 mM MgCl2, 10 mM 4-(2-hydroxyethyl)-1-piperazineethanesulfonic acid (HEPES) at pH 7.4. […] Patch pipettes were fabricated from borosilicate glass and pulled to a resistance of about 1 MΩ. Before each experiment, a stock solution consisting of 3 mg amphotericin-B dissolved into 50 μL anhydrous DMSO was made. […] To measure effects on calcium channel tail currents, the tail current integral was measured before and after application of a derivative, with the integral of each trace being normalized to its peak. […]
Statistical Analysis. […] All EC50 and IC50 values and their respective errors were determined by performing 100 iterations of a logistic function curve fit. […]

Structures are written as SMILES.

As to `CC[C@H](CO)Nc1nc(NCc2ccccc2)c2ncn(C(C)C)c2n1` [(R)-roscovitine, reference compound], the EC50 in experiment [1] is over 100 µM; in experiment [2] (N-Type Ca^2+ Channel Activity EC50 +/− SEM, whole cell perforated patch clamp, deactivation (tail) currents from N-type channels), 27.6 ± 1.65 µM; in experiment [2] (N-type EC50/IC50 affinities, Table 3, calcium channel agonist), 27.6 ± 1.65 µM.

As a reminder, the EC50 is the midpoint of the concentration-response curve.

These data come from US9796714B2, “Calcium channel agonists” (University of Pittsburgh—Of the Commonwealth System of …, priority 2013, dated 2017).
